This assay deals with AHNAK protein (human (in human NSCLC cells)) (UniProt Q09666). In words: co-IP; NSCLC cell lysates incubated with antibodies and magnetic beads at 4 °C overnight, washed with cell lysis buffer, eluate analysed by western blot; also done after circ6834 overexpression (binding enhanced). For orientation: In western blotting, separated proteins are transferred to a membrane and probed.

Sequences of proteins named here, by UniProt entry; tags and fusion partners are left off.
UniProt Q09666: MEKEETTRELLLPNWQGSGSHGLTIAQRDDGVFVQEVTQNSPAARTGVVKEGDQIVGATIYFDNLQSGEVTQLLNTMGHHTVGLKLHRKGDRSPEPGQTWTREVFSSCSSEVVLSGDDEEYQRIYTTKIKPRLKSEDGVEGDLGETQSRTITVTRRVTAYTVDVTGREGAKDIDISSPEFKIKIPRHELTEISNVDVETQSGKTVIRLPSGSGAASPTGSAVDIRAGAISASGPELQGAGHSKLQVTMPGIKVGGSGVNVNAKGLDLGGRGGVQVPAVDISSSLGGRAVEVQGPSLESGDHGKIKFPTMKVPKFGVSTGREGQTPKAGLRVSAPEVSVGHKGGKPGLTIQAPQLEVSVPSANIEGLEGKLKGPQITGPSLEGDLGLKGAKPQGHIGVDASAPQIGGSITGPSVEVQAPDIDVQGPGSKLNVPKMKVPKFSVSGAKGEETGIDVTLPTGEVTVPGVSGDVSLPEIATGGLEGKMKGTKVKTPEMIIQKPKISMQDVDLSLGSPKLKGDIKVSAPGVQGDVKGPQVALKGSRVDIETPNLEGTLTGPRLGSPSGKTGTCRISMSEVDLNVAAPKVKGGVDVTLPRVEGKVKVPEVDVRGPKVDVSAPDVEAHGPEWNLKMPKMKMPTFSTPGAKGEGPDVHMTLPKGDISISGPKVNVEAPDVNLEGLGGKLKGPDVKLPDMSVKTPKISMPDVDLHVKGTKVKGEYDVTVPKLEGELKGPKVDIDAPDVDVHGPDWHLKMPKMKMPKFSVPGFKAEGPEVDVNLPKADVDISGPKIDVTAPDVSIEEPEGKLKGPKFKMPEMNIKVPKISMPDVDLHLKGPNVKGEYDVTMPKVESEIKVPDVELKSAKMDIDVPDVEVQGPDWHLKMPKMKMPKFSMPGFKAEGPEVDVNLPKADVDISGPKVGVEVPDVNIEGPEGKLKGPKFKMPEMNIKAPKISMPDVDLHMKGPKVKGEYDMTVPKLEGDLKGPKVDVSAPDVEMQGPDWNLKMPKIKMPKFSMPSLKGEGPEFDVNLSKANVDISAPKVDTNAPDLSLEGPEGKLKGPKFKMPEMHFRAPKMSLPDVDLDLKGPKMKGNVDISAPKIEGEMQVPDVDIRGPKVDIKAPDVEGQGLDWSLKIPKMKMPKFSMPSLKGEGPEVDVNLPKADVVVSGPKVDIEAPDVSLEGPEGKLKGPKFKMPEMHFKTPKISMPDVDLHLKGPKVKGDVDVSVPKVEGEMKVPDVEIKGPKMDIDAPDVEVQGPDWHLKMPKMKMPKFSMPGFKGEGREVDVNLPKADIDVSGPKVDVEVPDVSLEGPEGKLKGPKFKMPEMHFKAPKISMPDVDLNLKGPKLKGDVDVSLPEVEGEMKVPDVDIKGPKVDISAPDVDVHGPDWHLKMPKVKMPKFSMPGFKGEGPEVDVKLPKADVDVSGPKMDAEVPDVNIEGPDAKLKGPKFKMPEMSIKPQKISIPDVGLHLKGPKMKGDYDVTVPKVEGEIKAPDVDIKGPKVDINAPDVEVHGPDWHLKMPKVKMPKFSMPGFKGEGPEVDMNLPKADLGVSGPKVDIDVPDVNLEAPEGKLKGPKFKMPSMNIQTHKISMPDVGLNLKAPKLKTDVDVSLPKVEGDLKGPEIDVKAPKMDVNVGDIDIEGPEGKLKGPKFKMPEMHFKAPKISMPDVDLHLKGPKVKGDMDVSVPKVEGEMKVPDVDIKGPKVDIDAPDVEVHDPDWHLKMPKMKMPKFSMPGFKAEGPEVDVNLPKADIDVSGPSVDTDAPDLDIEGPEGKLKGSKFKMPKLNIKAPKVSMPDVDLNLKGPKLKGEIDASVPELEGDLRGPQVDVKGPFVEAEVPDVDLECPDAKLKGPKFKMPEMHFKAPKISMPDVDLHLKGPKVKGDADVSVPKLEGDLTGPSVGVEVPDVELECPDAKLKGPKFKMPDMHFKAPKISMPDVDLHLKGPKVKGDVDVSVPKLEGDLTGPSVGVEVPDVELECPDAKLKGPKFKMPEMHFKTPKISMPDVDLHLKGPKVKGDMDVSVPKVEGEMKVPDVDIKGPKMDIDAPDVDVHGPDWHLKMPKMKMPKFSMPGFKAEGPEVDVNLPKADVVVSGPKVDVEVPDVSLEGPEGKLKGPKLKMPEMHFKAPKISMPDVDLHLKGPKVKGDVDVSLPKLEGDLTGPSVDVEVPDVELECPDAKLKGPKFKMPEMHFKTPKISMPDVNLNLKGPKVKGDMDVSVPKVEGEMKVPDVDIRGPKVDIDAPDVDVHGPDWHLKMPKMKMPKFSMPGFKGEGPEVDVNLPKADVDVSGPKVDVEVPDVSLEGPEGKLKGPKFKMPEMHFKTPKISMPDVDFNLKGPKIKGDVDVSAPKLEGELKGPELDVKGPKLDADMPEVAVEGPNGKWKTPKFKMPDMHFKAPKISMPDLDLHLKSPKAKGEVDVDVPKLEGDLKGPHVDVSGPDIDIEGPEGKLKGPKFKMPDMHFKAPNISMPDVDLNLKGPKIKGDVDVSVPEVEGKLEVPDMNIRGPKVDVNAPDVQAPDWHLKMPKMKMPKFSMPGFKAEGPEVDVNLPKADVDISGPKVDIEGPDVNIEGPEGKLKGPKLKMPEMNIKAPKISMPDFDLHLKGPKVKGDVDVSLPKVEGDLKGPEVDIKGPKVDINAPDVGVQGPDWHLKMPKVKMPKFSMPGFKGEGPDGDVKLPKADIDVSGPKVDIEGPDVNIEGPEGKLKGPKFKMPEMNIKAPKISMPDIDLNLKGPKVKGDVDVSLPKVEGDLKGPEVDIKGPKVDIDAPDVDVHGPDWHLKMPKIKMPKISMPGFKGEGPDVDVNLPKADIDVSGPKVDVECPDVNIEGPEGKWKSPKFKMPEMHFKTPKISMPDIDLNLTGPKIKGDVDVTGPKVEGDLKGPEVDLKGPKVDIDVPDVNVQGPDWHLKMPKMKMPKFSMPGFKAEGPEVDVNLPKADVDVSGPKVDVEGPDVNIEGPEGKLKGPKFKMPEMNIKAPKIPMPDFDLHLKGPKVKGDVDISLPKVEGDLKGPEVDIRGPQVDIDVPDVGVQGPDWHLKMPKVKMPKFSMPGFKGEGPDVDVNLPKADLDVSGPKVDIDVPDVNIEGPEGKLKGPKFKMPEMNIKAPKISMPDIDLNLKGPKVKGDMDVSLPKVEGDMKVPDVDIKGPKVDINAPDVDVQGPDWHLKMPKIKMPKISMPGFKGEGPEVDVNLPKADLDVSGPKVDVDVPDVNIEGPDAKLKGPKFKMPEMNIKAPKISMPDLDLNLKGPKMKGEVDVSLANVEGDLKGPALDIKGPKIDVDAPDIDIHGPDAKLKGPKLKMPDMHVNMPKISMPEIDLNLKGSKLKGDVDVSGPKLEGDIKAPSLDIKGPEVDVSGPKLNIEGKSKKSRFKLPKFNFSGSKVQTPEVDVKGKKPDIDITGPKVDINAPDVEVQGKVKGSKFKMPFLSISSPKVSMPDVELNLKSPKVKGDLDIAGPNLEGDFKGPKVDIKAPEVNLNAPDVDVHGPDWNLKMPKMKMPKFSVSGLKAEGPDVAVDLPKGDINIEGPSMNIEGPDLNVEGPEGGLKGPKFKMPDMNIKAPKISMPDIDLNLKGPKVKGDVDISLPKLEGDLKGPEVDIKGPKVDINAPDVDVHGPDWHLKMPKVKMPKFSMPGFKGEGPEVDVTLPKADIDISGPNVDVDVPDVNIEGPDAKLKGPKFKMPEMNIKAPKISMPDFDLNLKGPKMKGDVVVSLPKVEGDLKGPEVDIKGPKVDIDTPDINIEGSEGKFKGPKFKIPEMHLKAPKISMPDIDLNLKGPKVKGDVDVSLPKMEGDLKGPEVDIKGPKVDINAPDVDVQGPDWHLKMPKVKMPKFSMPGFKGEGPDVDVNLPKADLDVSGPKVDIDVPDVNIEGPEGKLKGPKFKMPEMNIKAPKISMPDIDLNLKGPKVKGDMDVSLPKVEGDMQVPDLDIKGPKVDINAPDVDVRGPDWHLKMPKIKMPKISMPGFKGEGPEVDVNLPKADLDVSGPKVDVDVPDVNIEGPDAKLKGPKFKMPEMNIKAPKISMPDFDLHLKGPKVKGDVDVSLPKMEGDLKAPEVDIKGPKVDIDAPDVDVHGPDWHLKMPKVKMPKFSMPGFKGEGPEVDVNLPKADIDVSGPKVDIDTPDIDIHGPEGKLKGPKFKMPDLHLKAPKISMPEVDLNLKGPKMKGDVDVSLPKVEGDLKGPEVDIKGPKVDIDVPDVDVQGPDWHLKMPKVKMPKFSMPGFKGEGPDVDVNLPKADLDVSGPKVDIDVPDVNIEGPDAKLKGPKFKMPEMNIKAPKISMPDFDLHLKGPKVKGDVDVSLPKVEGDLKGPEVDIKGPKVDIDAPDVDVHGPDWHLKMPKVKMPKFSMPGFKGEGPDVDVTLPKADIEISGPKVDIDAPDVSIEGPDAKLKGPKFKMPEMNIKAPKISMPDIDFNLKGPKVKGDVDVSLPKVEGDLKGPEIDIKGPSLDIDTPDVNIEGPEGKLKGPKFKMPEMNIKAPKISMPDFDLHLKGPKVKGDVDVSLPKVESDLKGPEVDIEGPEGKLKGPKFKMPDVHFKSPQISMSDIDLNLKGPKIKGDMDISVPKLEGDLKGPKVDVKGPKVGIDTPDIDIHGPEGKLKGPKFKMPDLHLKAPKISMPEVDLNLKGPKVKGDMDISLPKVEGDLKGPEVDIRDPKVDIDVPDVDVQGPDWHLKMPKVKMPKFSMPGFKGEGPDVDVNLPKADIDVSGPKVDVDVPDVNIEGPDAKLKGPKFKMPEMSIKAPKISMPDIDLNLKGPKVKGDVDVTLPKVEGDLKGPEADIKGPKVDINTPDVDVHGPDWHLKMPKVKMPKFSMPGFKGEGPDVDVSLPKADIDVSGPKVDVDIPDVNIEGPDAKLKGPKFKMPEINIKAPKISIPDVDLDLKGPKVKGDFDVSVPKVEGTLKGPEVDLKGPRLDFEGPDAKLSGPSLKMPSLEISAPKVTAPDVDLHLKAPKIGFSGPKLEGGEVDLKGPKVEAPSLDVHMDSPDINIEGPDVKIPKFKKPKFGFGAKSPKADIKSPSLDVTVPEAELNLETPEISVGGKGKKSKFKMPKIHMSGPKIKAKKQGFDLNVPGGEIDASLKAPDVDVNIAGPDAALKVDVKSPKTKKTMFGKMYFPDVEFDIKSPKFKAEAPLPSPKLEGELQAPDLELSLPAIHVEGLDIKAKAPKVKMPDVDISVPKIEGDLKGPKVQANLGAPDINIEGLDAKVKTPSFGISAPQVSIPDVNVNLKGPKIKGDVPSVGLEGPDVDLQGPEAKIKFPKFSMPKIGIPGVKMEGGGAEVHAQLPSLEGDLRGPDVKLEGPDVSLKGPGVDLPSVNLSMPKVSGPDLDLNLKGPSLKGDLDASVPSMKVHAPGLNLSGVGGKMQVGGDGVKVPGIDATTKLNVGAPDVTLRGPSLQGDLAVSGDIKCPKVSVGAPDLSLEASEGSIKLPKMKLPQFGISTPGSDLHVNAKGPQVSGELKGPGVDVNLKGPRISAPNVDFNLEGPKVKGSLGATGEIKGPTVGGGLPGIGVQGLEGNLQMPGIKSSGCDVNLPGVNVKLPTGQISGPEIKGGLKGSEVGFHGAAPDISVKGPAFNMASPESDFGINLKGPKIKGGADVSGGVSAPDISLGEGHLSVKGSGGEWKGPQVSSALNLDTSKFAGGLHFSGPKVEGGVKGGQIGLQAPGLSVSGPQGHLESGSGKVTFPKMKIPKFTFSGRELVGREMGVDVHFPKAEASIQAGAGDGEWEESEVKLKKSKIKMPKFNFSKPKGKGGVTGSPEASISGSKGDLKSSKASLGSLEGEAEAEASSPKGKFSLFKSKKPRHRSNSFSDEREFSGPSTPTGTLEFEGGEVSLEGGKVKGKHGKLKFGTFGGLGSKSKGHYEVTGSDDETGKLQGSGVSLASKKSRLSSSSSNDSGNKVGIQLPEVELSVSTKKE
UniProt Q14258: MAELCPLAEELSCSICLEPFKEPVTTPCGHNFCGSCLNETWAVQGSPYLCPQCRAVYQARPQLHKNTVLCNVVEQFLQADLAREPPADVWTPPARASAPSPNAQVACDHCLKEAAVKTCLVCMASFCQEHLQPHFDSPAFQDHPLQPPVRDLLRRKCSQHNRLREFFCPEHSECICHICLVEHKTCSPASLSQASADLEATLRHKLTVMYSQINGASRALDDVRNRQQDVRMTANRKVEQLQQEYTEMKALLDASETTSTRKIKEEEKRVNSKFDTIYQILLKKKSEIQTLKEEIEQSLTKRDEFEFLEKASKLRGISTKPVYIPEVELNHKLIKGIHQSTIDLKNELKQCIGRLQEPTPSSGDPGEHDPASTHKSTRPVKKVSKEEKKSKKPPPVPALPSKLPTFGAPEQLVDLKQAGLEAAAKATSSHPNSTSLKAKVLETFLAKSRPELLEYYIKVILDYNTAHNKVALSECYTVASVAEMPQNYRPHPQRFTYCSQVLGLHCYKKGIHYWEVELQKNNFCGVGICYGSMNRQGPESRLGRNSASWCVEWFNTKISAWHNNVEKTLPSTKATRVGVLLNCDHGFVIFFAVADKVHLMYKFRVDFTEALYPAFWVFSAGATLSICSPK

These are yes or no findings as the source states them, for the method shown. In cells and extracts the contact can be indirect. Some entries that bind do so weakly or less than the wild type.

As for “TRIM25 (from UniProt Q14258 1-630) (enzyme)”, the binding entry was “binds”.

For the origin of these results see article PMC11184876.
